Assay results as given in patent US4377687A, “Analogs of 1-(2-chloroethyl)-1-nitroso-3-(cycloheyl)-urea substituted by heterocyclic rings or alkyl radicals” (Stiftung Deutsches Krebsforschungszentrum, priority 1978, dated 1983).
At least one structure is not confirmed: it was looked up by name or label, or the drawing left a doubt.

Tested on: Yoshida sarcoma
Type: in vivo, rat (male Sprague-Dawley rats)
Procedure: The chemotherapeutic activity of nitrosoureas was compared in antitumor tests using Yoshida sarcoma ascited cells implanted into the wall of the descending colon in Sprague-Dawley rats.
Male Sprague-Dawley rats were used in the experiments. Yoshida sarcome in ascites form was maintained in the same strain of rats by serial intraperitoneal injection of 0,5 ml of ascites fluid.
3×10^6 cells were injected into the colon wall in a manner known per se. The chemotherapeutic treatment was carried out on the eighth day after implantation of the tumor cells.
Water-insoluble compounds were dissolved in Cremophor EL/ethanol/physiological saline (20:20:60: vol.%). Water-soluble substances were dissolved in physiological saline. Cremophor EL is a surfactant on the basis of polyethoxylated castor oil. All test compounds were administered introperitoneally. The nitrosoureas were applied at approximately equitoxic doses corresponding to about 80% of the acute LD50 values observed in healthy rats of the same strain over a 28-day observation period.
Each experiment involved an untreated control group and a varying number of treated groups. Individual survival times were counted as days after tumor inoculation. At the time of death a record of whether an animal was tumor-free or not was made. All animals alive 120 days after tumor inoculation were killed. Animals that according to macroscopic examination had no tumor at the end of the experiment were considered as cured. Since in a number of control rats also no tumors occurred after 120 days the differences in cures between controls and treated animals rather than absolute numbers are reported. Differences in survival were evaluated statistically by individual comparisons between treated rats and controls using a nonparametric log-rank test (Kalbfleisch and Prentice, The statistical analysis of failure time data, Wiley, New York, 1979). Numerical evaluation was performed using a computerized system.

O=NN(CCCl)C(=O)NCc1cccnc1 [Picolyl-3-CNU, 1-(2-chloroethyl)-1-nitroso-3-(methylene-3-pyridyl)-urea]
tumor-free animals at the end of the experiment (in words) (120 days): less animals proved to be tumor-free compared with the controls | effect on survival time / life expectancy (in words) (experiments 1-4, MeCCNU 45, morpholino-CNU 28 (exp. 3 and 5), dimethylmorpholine-CNU 45, piperidino-CNU 15, picolyl-3-CNU 25, picolyl-3-CNU.HCl 25 mg/kg): only an insignificant increase in life expectancy | chemotherapeutic activity against Yoshida sarcoma in the colon wall (in words) (i.p.): only marginal activity
